These results are taken from US20090209606A1 (priority 2004, published 2009).

The test system of this data set is 60 human tumor cell lines. To be noted: NCI COMPARE.

Regarding `Nc1ncn([C@@H]2O[C@H](CO)[C@@H](O)[C@@H]2O)c(=O)n1` [Ara-AC (Fazarabine), Fazarabine], the “Correlation (PCC) with bendamustine, TGI” value is 0.524 (TGI).
